Positions count from the first letter of the chain named. In names and notes the source's numbering stands. No constants are given. Whether binding was seen depends on the method and setting. Some results given as binding are weak or reduced against the parent protein; the word gives no strength. Each block holds one binder with its values, some of them ahead of it.
What was measured:
[1] = target: Thermotoga maritima DnaA initiator (tmaDnaA), wildtype (Thermotoga maritima) (UniProt P46798); test: native gel or EMSA; ADP-bound tmaDnaA on a 30 bp DNA (300 nM) with tmaDnaA boxes 2 and 3; complexes C1 and C2; 8% polyacrylamide gel, GelStar staining; both purified
[2] = target: tmaDnaA R251A (Arg-finger variant) (Thermotoga maritima) (UniProt P46798); test: native gel or EMSA; ATP-bound tmaDnaA on a 30 bp DNA (300 nM) with the oppositely oriented tmaDnaA boxes 2 and 3; complexes with one (C1) or two (C2) tmaDnaA molecules; 8% polyacrylamide gel, GelStar staining; self-interaction read from the preference for C2 on DNA; both purified

- binding [1]: binds weakly
B1: Thermotoga maritima DnaA initiator (tmaDnaA), wildtype (natural protein, UniProt P46798 1-440, looked up)
chain: MKERILQEIKTRVNRKSWELWFSSFDVKSIEGNKVVFSVGNLFIKEWLEKKYYSVLSKAVKVVLGNDATFEITYEAFEPHSSYSEPLVKKRAVLLTPLNPDYTFENFVVGPGNSFAYHAALEVAKHPGRYNPLFIYGGVGLGKTHLLQSIGNYVVQNEPDLRVMYITSEKFLNDLVDSMKEGKLNEFREKYRKKVDILLIDDVQFLIGKTGVQTELFHTFNELHDSGKQIVICSDREPQKLSEFQDRLVSRFQMGLVAKLEPPDEETRKSIARKMLEIEHGELPEEVLNFVAENVDDNLRRLRGAIIKLLVYKETTGKEVDLKEAILLLKDFIKPNRVKAMDPIDELIEIVAKVTGVPREEILSNSRNVKALTARRIGMYVAKNYLKSSLRTIAEKFNRSHPVVVDSVKKVKDSLLKGNKQLKALIDEVIGEISRRALSG
notes: DnaA chromosomal replication initiator protein of Thermotoga maritima (tmaDnaA); also called WT tmaDnaA; ATP-tmaDnaA; source: purified as described previously (40); plasmid pTHMA-1

- binding [2]: binds weakly
B2: tmaDnaA R251A (Arg-finger variant) (protein, UniProt P46798 1-440)
chain: B1 chain with R251A
